## Primary screen of a compound library

The chains behind the UniProt entries cited, without tags or fusion partners.
UniProt E9BF75, entry or part of it: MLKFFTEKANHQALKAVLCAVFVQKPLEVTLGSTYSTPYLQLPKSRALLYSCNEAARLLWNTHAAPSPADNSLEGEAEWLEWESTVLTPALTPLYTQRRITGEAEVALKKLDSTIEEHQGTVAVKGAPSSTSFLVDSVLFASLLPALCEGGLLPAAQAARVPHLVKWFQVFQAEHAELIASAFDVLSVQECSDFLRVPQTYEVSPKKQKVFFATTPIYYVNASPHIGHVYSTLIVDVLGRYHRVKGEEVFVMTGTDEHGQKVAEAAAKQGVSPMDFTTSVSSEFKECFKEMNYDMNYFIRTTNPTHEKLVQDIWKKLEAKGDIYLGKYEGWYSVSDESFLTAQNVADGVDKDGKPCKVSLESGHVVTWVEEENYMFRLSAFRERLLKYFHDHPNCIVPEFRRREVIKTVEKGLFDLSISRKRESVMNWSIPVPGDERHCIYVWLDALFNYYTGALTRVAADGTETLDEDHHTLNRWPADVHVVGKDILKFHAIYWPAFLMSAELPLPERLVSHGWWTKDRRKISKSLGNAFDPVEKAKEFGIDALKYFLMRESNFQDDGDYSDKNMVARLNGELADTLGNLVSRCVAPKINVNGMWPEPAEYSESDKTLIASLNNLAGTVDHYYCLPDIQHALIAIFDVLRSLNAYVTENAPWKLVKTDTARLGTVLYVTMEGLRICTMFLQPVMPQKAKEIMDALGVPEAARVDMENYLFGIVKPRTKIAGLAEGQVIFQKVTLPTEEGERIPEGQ

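Methionyl-tRNA synthetase (putative), Leishmania donovani (UniProt E9BF75). Primary screen of methionyl-tRNA synthetase; the read-out is not stated. The test concentration is not given. The values are filed as inhibition. Of about 68,000 compounds tested this way, about 24 (0.035%) reached 50% or more in at least one test.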

All values are in %. The record does not define 0% and 100%; most values in the screen are far below 50% and negative numbers occur (in some assays of this library far below -100). The compounds are a random part of those screened.

{"smiles": "COc1ccc(CN2C[C@@H]3OCCN(CC4CCCO4)[C@@H]3C2)cc1", "stereo": "stereo not given in full", "Inhibition": 16.5}
{"smiles": "c1cc(CN2CCOC3(CCCC3)C2)no1", "Inhibition": 16.77}
{"smiles": "CN1CCN(Cc2nnc(C3CCN(C4CCCCC4)CC3)n2C)CC1", "Inhibition": 13.31}
{"smiles": "Cc1cc(S(=O)(=O)NCC2CNCCOC2)c(C)cc1Cl", "stereo": "stereo not given", "Inhibition": 14.78}
{"smiles": "Fc1ccc(-c2cc(NCCC3CCOC3)n3nccc3n2)cc1", "stereo": "stereo not given", "Inhibition": -2.667}
{"smiles": "COc1cc(NC(=O)NCc2nccn2C)ccc1Br", "Inhibition": 18.04}
{"smiles": "O=C(CCNC(=O)C1CCCC1)NCc1ccccc1Cn1ccnc1", "Inhibition": 24}
{"smiles": "CCC1(C(=O)O)CCCN(CCOCc2ccccc2)C1", "stereo": "stereo not given", "Inhibition": 5.442}
{"smiles": "Cc1nn(C)c(N(C)C)c1CNCc1ccnc(N2CCOCC2)c1", "Inhibition": 16.91}
{"smiles": "CC(=O)Nc1nc2c(s1)C1(CCCC1)Nc1ccccc1S2", "Inhibition": 9.951}
{"smiles": "COC(=O)[C@@H]1C[C@H](NC(=O)Cn2c(=O)cc(C)c3ccccc32)CN1C", "Inhibition": 14.44}
{"smiles": "C=C(C)CN1CCC(NC(=O)NCCc2ccc(N(C)C)cc2)CC1", "Inhibition": 13.04}
{"smiles": "CN(Cc1cc(-c2cccnc2)no1)C(=O)c1cccn1C", "Inhibition": 16.03}
{"smiles": "c1ncn(Cc2ccc(CNCc3ccc4c(c3)OCCO4)cc2)n1", "Inhibition": 17.02}
{"smiles": "Clc1ccc2cccnc2c1CN1CCCCC1Cn1cncn1", "stereo": "stereo not given", "Inhibition": 14.29}
{"smiles": "O=C(N[C@@H]1CN(Cc2ccccn2)[C@@H]2COC[C@@H]21)C1CCC1", "Inhibition": 5.674}
{"smiles": "Cc1c(C2c3nc[nH]c3CCN2CCOCc2ccccc2)cnn1C", "stereo": "stereo not given", "Inhibition": 6.186}
{"smiles": "Cc1nc(C2CCNC2)nc2c1CCC(=O)N2CC(C)C", "stereo": "stereo not given", "Inhibition": 11.49}
{"smiles": "CNc1nc2c(c(C(=O)N3CCCC3)n1)CN(Cc1cc(C)no1)CC2", "Inhibition": 11.66}
{"smiles": "Cc1cccc(N2CC[C@H]3[C@H]2CCN3C(=O)c2cnn(C)c2)n1", "Inhibition": 14.66}
{"smiles": "OC1(CNC2CCN(c3ccccn3)CC2)CCc2ccccc21", "stereo": "stereo not given", "Inhibition": 2.821}
{"smiles": "Cn1cccc1C(=O)NCc1cnc2n1CCN(C(=O)c1ccoc1)C2", "Inhibition": 13.33}
{"smiles": "Cc1nc([C@H]2C[C@@H]3CCN(Cc4ccc5c(c4)OCO5)C[C@H]3O2)no1", "Inhibition": 11.76}
{"smiles": "CCOCc1cncc2c1CCN(C(=O)c1cccc(C#N)c1)C2", "Inhibition": 11.42}
{"smiles": "Cn1cc(NC(=O)c2cc[nH]n2)cc(Cl)c1=O", "Inhibition": 10.51}
{"smiles": "Cc1cnc2n(c1=O)C(CC(=O)NCc1ccc(Cl)cc1)CS2", "stereo": "stereo not given", "Inhibition": 12.39}
{"smiles": "CCc1nnsc1C(=O)NCCC1CCCN(C(C)C)C1", "stereo": "stereo not given", "Inhibition": 7.216}
{"smiles": "C[S+]([O-])c1ccc(NC(=O)CC2=CCCCC2)cc1", "stereo": "stereo not given", "Inhibition": 12.89}
{"smiles": "CN(C)C(=O)N1C[C@@H]2COC[C@]2(c2nnc(C3CC3)o2)C1", "Inhibition": 1.075}
{"smiles": "O=C(N1CCCO1)[C@@]12CCO[C@@H]1CCN(Cc1ccsc1)C2", "Inhibition": 11.23}
{"smiles": "O=C(O)c1cn(CC2CCCN(c3nccc4occc34)C2)nn1", "stereo": "stereo not given", "Inhibition": 5.205}
{"smiles": "CCOCCCNC(=O)c1cc(OC)c2ccoc2c1", "Inhibition": 19.34}
{"smiles": "Cc1ccccc1Oc1ncccc1CNC1CCC1", "Inhibition": 1.423}
{"smiles": "Cc1[nH]nc2ncc(C(=O)N3CCN(CC(O)C(C)(C)C)CC3)cc12", "stereo": "stereo not given", "Inhibition": 6.593}
{"smiles": "COc1c(C2CCCN2C(=O)c2csc(C(C)C)n2)c(C)nn1C", "stereo": "stereo not given", "Inhibition": 11.74}
{"smiles": "CSc1ccc(CN(C(=O)c2cc[nH]n2)C2CC2)cc1", "Inhibition": 8.6}
{"smiles": "Cc1cc(C)c(CNC(=O)N2CCCC2c2ccc(F)cc2)c(=O)[nH]1", "stereo": "stereo not given", "Inhibition": 28.49}
{"smiles": "Cn1cc(CN2CCCC3(CCN(c4nncs4)C3)C2)cn1", "stereo": "stereo not given", "Inhibition": 4.833}
{"smiles": "CCC1CN(C(=O)Cc2coc(-c3ccccc3)n2)CCO1", "stereo": "stereo not given", "Inhibition": 11.18}
{"smiles": "Cc1ccc2c(c1)CCC21CCN(C(=O)CN(C)C)CC1", "Inhibition": 17.04}
{"smiles": "OCCc1cc(CC2(NCc3ccc(C(F)(F)F)cc3)COC2)no1", "Inhibition": 10.75}

For reference, 5 entries once more:

{"smiles": "CN(C)C(=O)N1C[C@@H]2COC[C@]2(c2nnc(C3CC3)o2)C1", "Inhibition": 1.075}
{"smiles": "Cn1cc(CN2CCCC3(CCN(c4nncs4)C3)C2)cn1", "stereo": "stereo not given", "Inhibition": 4.833}
{"smiles": "C=C(C)CN1CCC(NC(=O)NCCc2ccc(N(C)C)cc2)CC1", "Inhibition": 13.04}
{"smiles": "CSc1ccc(CN(C(=O)c2cc[nH]n2)C2CC2)cc1", "Inhibition": 8.6}
{"smiles": "Cc1cc(S(=O)(=O)NCC2CNCCOC2)c(C)cc1Cl", "stereo": "stereo not given", "Inhibition": 14.78}

From ChEMBL document CHEMBL3988442, “University of Dundee, Small-Polar-MMV Screening Library” (2021).